Reference: PubChem BioAssay AID1347423 (Functional Genomics Laboratory (NCATS/FGL), 2020)
The whole screen tested about 52,000 sequences, of which about 210 (0.4%) were called active.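 Rule for the calls: active = gene whose silencing raises cell survival under the drug, median off-target-corrected z-score across its silencing RNAs 2 or more; inactive = the rest.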 This is one part of the list.

assay: Resistance to Poly (ADP-Ribose) Polymerase inhibitor: Gene Identification via Genome-wide siRNA Screen; conditions: mouse BRCA2 R2336H ES cells, olaparib, CellTiter-Glo viability; hits give high values
Outline: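 Genome-wide siRNA screen (3 siRNAs/gene, 20 nM) in mouse ES cells carrying hypomorphic BRCA2 R2336H; olaparib 500 nM added 48 h post-transfection, CellTiter-Glo viability 72 h later. Normalized to plate-median negative control; MAD z-scores, gene median, seed-adjusted.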

Sequence | z-score
GGAGUUUCCAUCACGAAGATT against Bmp4 | inactive: 0.473
CGAGGCUAAGAGGAAUCAGTT against Capn5 | inactive: -0.079
GGAGGAAAUAAAUAUUGGGTT against 9830005G06Rik | inactive: -0.647
CGAACUCAUCUACUGCUAUTT against Chst11 | inactive: 0.0657
CCUAUUGAUUGUAUAUCCATT against 4921531G14Rik | inactive: 0.531
GCACAUUUAUUCAAGAACCTT against Ttn | inactive: -0.189
GGAAUUAUGCUGCUUUAAUTT against Xrcc2 | inactive: 0.312
GGGUAACUAUAUCACAUACTT against Cacna1c | inactive: 0.88
GGCACCAUAGAUGUUUGAGTT against Cyp4f16 | inactive: 1.71
GGUCAAGCUUAAAAAACCCTT against 1700027J05Rik | inactive: -0.341
CCAAAGUGUUCCAAAAUCATT against A530054K11Rik | inactive: 1.01
GGAAGAGGAGGAAAACUUGTT against 1700010C24Rik | inactive: 1.66
GGAUGGCUUUGGAGAACACTT against Sat1 | inactive: -1.08
GGGAACUUUUUUGAUGGGCTT against Psmb2 | inactive: -2.95
GGCAUAUGUCAAUUUGUUATT against Ntsr1 | inactive: 0.888
CCUCAAAAAGUGGGAUGAGTT against Gnpat | inactive: -0.521
GGUCACUGAACCUAUUUCCTT against Arhgap15 | inactive: -0.118
CCAGACAAUCUUUCACUGCTT against Gstm6 | inactive: 0.269
GGAAAGAAGGGAUUAUCCATT against Faim | inactive: 0.233
GGGUUCAGCAUACCCUUCATT against V1re6 | inactive: -0.586
GCUCCAGUAUCAAAUCGCUTT against Frmd3 | inactive: 0.0169
GGGUGAUCCAGGUUUGCCATT against Sftpd | inactive: 0.398
CCGCGUGUGCUCCUUUUUGTT against Zcchc3 | inactive: -0.259
GGGUUAUGAAGACAAACCATT against 2610204L23Rik | inactive: -0.145
GGAUCAUCUUCUUUGGGUCTT against Aig1 | inactive: 0.934
GGUCUAUCGUUAUUUGAUATT against Man1a | inactive: 1.11
GGAAAAUAAGUUGUCUGUCTT against Olfr120 | inactive: -2.4
GGAAGUGUGCUUUCUUUCCTT against C130086A10 | inactive: -0.422
GCAGACUCAUGCACUUGAATT against Olfr1165 | inactive: 2.18
